{"source": "the supplement of paper PMC4604168 (melanoma cell lines)", "note": "The other results are listed elsewhere or left out. Repeats are few or missing, and single values can be far off.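 Cells were imaged in 1,536-well plates, and nuclei stained with an antibody against cleaved PARP were counted against all DNA-stained nuclei to give the apoptosis fraction. Screening doses were chosen to leave most cells alive, and resting and induced cleaved-PARP levels differ strongly between cell lines.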"}
{"tested_on": "LOXIMVI", "experiment": "cleaved PARP positive nuclei fraction relative to DMSO control; melanoma cells; higher = more apoptosis", "conditions": "library dose: low library concentration; 72 h", "units": {"cleaved PARP positive nuclei fraction": "%"}}
{"smiles": "CCCS(=O)(=O)Nc1ccc(F)c(C(=O)c2c[nH]c3ncc(Cl)cc23)c1F", "note": "+ Oc1nc(-c2ccc(C(F)(F)F)cc2)nc2c1CSCC2 [XAV939] (first compound 0.08 µM, partner dose 2 µM)", "cleaved PARP positive nuclei fraction": 306}
{"smiles": "Nc1nc(F)nc2c1ncn2[C@@H]1O[C@H](CO)[C@@H](O)[C@@H]1O", "note": "[fludarabine] + COc1ccc(-c2ccc3c(N4CCOCC4)nc(N4C[C@@H](C)O[C@@H](C)C4)nc3n2)cc1CO [KU0063794] (first compound 0.2 µM, partner dose 0.02 µM)", "cleaved PARP positive nuclei fraction": 75.1}
{"smiles": "CS(=O)(=O)CCNCc1ccc(-c2ccc3ncnc(Nc4ccc(OCc5cccc(F)c5)c(Cl)c4)c3c2)o1", "note": "[lapatinib] + O=C(Nc1ccccc1)c1cc([N+](=O)[O-])ccc1Cl [GW9662] (first compound 0.8 µM, partner dose 2 µM)", "cleaved PARP positive nuclei fraction": 59}
{"smiles": "C=C(c1ccc(C(=O)O)cc1)c1cc2c(cc1C)C(C)(C)CCC2(C)C", "note": "[Bexarotene] + CCc1ccc(CCOc2ccc(CC3SC(=O)NC3=O)cc2)nc1 [pioglitazone] (first compound 2 µM, partner dose 2 µM)", "cleaved PARP positive nuclei fraction": 66.5}
{"smiles": "C=C(c1ccc(C(=O)O)cc1)c1cc2c(cc1C)C(C)(C)CCC2(C)C", "note": "[Bexarotene] + c1cc(-c2cnn3cc(-c4ccc(OCCN5CCCCC5)cc4)cnc23)ccn1 [Dorsomorphin] (first compound 2 µM, partner dose 0.4 µM)", "cleaved PARP positive nuclei fraction": 14.6}
{"smiles": "CS(=O)(=O)CCNCc1ccc(-c2ccc3ncnc(Nc4ccc(OCc5cccc(F)c5)c(Cl)c4)c3c2)o1", "note": "[lapatinib] + COc1cc(N2CCC(N3CCN(C)CC3)CC2)ccc1Nc1ncc(Cl)c(Nc2ccccc2S(=O)(=O)C(C)C)n1 [NVP-TAE684] (first compound 0.8 µM, partner dose 0.08 µM)", "cleaved PARP positive nuclei fraction": 50.7}
{"smiles": "CNC(=O)c1cc(Oc2ccc(NC(=O)Nc3ccc(Cl)c(C(F)(F)F)c3)cc2)ccn1", "note": "[sorafenib] + CCN(CC)CCCCNc1ncc2cc(-c3cc(OC)cc(OC)c3)c(NC(=O)NC(C)(C)C)nc2n1 [PD173074] (first compound 0.4 µM, partner dose 0.1 µM)", "cleaved PARP positive nuclei fraction": 133}
{"smiles": "CO[C@H]1C[C@@H]2CC[C@@H](C)[C@@](O)(O2)C(=O)C(=O)N2CCCC[C@H]2C(=O)O[C@H]([C@H](C)C[C@@H]2CC[C@@H](OCCO)[C@H](OC)C2)CC(=O)[C@H](C)/C=C(\\C)[C@@H](O)[C@@H](OC)C(=O)[C@H](C)C[C@H](C)/C=C/C=C/C=C/1C", "note": "[everolimus] + O=C1NC(=O)/C(=C/c2ccc(-c3ccc(F)cc3O)o2)S1 [AS252424] (first compound 0.02 µM, partner dose 1 µM)", "cleaved PARP positive nuclei fraction": 117}
